# Assay results: the supplement of paper PMC8728848
# This is one part of the list.
# How the values were obtained:
# Assay in all cases: glycan array binding signal (z-score within array); higher = stronger binding
# Settings in all cases: glycan notation: IUPAC condensed, linker removed
# [1] = molecular target: Neu5Ac(a2-6)GlcNAc(b1-4)GlcNAc(b1-4)GlcNAc
# Outline: (§1)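 Negative Z-scores can be read as non-binding. The Z-score is calculated within each array and then averaged across arrays of one protein sequence at different concentrations or buffers and across linkers. Arrays, 3228 in all, were curated from the Consortium for Functional Glycomics database and kept only where the protein sequence was available.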
# [2] = molecular target: Neu5Ac(a2-8)Neu5Ac
# Outline: as §1
# [3] = molecular target: Neu5Ac(a2-8)Neu5Ac(a2-3)Gal(b1-3)GalNAc(b1-4)[Neu5Ac(a2-3)]Gal(b1-4)Glc
# Outline: as §1
# [4] = molecular target: Neu5Ac(a2-8)Neu5Ac(a2-3)Gal(b1-3)GalNAc(b1-4)[Neu5Ac(a2-8)Neu5Ac(a2-3)]Gal(b1-4)Glc
# Outline: as §1
# [5] = molecular target: Neu5Ac(a2-8)Neu5Ac(a2-3)Gal(b1-4)Glc
# Outline: as §1
# [6] = molecular target: Neu5Ac(a2-8)Neu5Ac(a2-3)Gal(b1-4)GlcNAc
# Outline: as §1
# [7] = molecular target: Neu5Ac(a2-8)Neu5Ac(a2-3)[Gal(b1-3)GalNAc(b1-4)]Gal(b1-4)Glc
# Outline: as §1
# [8] = molecular target: Neu5Ac(a2-8)Neu5Ac(a2-3)[GalNAc(b1-4)]Gal(b1-4)Glc
# Outline: as §1
# [9] = molecular target: Neu5Ac(a2-8)Neu5Ac(a2-8)Neu5Ac
# Outline: as §1
# [10] = molecular target: Neu5Ac(a2-8)Neu5Ac(a2-8)Neu5Ac(a2-3)Gal(b1-4)Glc
# Outline: as §1
# [11] = molecular target: Neu5Ac(a2-8)Neu5Ac(a2-8)Neu5Ac(a2-3)[Gal(b1-3)GalNAc(b1-4)]Gal(b1-4)Glc
# Outline: as §1
# [12] = molecular target: Neu5Ac(a2-8)Neu5Ac(a2-8)Neu5Ac(a2-3)[GalNAc(b1-4)]Gal(b1-4)Glc
# Outline: as §1
# [13] = molecular target: Neu5Ac(a2-8)Neu5Ac(a2-8)Neu5Ac(a2-8)Neu5Ac(a2-3)[GalNAc(b1-4)]Gal(b1-4)Glc
# Outline: as §1
# [14] = molecular target: Neu5Ac(a2-8)Neu5Gc(a2-3)Gal(b1-4)GlcNAc
# Outline: as §1
# [15] = molecular target: Neu5Ac(b2-6)Gal(b1-4)GlcNAc
# Outline: as §1
# [16] = molecular target: Neu5Ac(b2-6)GalNAc
# Outline: as §1
# [17] = molecular target: Neu5Ac9Ac(a2-3)Gal(b1-3)GlcNAc
# Outline: as §1
# [18] = molecular target: Neu5Ac9Ac(a2-3)Gal(b1-4)GlcNAc
# Outline: as §1
# [19] = molecular target: Neu5Ac9Ac(a2-6)Gal(b1-4)GlcNAc
# Outline: as §1
# [20] = molecular target: Neu5Gc(a2-3)Gal(b1-3)GlcNAc
# Outline: as §1
# [21] = molecular target: Neu5Gc(a2-3)Gal(b1-3)[Fuc(a1-4)]GlcNAc
# Outline: as §1
# [22] = molecular target: Neu5Gc(a2-3)Gal(b1-4)Glc
# Outline: as §1
# [23] = molecular target: Neu5Gc(a2-3)Gal(b1-4)GlcNAc
# Outline: as §1
# [24] = molecular target: Neu5Gc(a2-3)Gal(b1-4)GlcNAc(b1-3)Gal(b1-4)GlcNAc(b1-2)Man(a1-3)[Neu5Gc(a2-3)Gal(b1-4)GlcNAc(b1-3)Gal(b1-4)GlcNAc(b1-2)Man(a1-6)]Man(b1-4)GlcNAc(b1-4)GlcNAc
# Outline: as §1
# [25] = molecular target: Neu5Gc(a2-3)Gal(b1-4)[Fuc(a1-3)]GlcNAc
# Outline: as §1
# [26] = molecular target: Neu5Gc(a2-6)Gal(b1-4)GlcNAc
# Outline: as §1
# [27] = molecular target: Neu5Gc(a2-6)GalNAc
# Outline: as §1
# [28] = molecular target: Neu5Gc(a2-8)Neu5Ac(a2-3)Gal(b1-4)GlcNAc
# Outline: as §1
# [29] = molecular target: Neu5Gc(a2-8)Neu5Gc(a2-3)Gal(b1-4)GlcNAc
# Outline: as §1
# [30] = molecular target: Neu5Gc(a2-8)Neu5Gc(a2-3)Gal(b1-4)GlcNAc(b1-3)Gal(b1-4)GlcNAc
# Outline: as §1
# [31] = molecular target: Neu5Gc(a2-8)Neu5Gc(a2-6)Gal(b1-4)GlcNAc
# Outline: as §1
# [32] = molecular target: Neu5Gc(b2-6)Gal(b1-4)GlcNAc
# Outline: as §1
binder,measurement,setting,value
Nc3LysM-2 (protein) AHVLQARQSVSCDFATAANTGDTCASFAAAWGITEAAFAKLNPGVSCPGNLIAGSEYCVIGTVSTGAPTTTKAATTSTTPPTTTTTTKATTLSTSTTSVSPTGPSPQMPSITSTCNKFYQVQSGDGCWSIEQAQGVSASDFMAWNKAVDAQCDNLWLGYYVCVGVKGGSSPPPTTTTKPASSSAPTPQMPNTVSNCKKFHKVVSGDGCWAIEQAAGISASDFAKWNPYVDAACDNLWLGYYVCIGV,glycan array binding signal (z-score),[1],-0.866
same,glycan array binding signal (z-score),[2],0.764
same,glycan array binding signal (z-score),[3],1.77
same,glycan array binding signal (z-score),[4],-0.682
same,glycan array binding signal (z-score),[5],0.832
same,glycan array binding signal (z-score),[6],0.005
same,glycan array binding signal (z-score),[7],-1.03
same,glycan array binding signal (z-score),[8],0.76
same,glycan array binding signal (z-score),[9],0.614
same,glycan array binding signal (z-score),[10],-1.22
same,glycan array binding signal (z-score),[11],-0.618
same,glycan array binding signal (z-score),[12],-1.15
same,glycan array binding signal (z-score),[13],0.938
same,glycan array binding signal (z-score),[14],-0.798
same,glycan array binding signal (z-score),[15],-1.26
same,glycan array binding signal (z-score),[16],0.072
same,glycan array binding signal (z-score),[17],-0.468
same,glycan array binding signal (z-score),[18],1.2
same,glycan array binding signal (z-score),[19],-0.103
same,glycan array binding signal (z-score),[20],0.959
same,glycan array binding signal (z-score),[21],-1.09
same,glycan array binding signal (z-score),[22],-0.858
same,glycan array binding signal (z-score),[23],-0.122
same,glycan array binding signal (z-score),[24],-0.459
same,glycan array binding signal (z-score),[25],1.35
same,glycan array binding signal (z-score),[26],-1.12
same,glycan array binding signal (z-score),[27],0.729
same,glycan array binding signal (z-score),[28],-1.04
same,glycan array binding signal (z-score),[29],-0.807
same,glycan array binding signal (z-score),[30],0.232
same,glycan array binding signal (z-score),[31],-0.347
same,glycan array binding signal (z-score),[32],-0.199

# Retrieved one by one from the list above (2):
binder,measurement,setting,value
Nc3LysM-2 (protein) AHVLQARQSVSCDFATAANTGDTCASFAAAWGITEAAFAKLNPGVSCPGNLIAGSEYCVIGTVSTGAPTTTKAATTSTTPPTTTTTTKATTLSTSTTSVSPTGPSPQMPSITSTCNKFYQVQSGDGCWSIEQAQGVSASDFMAWNKAVDAQCDNLWLGYYVCVGVKGGSSPPPTTTTKPASSSAPTPQMPNTVSNCKKFHKVVSGDGCWAIEQAAGISASDFAKWNPYVDAACDNLWLGYYVCIGV,glycan array binding signal (z-score),[23],-0.122
same,glycan array binding signal (z-score),[27],0.729
